The exact form of at least one protein or probe is not confirmed. A negative result means that nothing was seen under these conditions.
Biological target: GST (UniProt P08515)
Experiment: EMSA
Settings: 2 uM RNA, 5 uM protein; EMSA: 10 mM Tris-HCl pH 7.5, 20 mM KCl, 1 mM MgCl2, 1 mM DTT, room temp 5 min, 2% agarose 0.5x TBE; recombinant protein; protein details: GST

By UniProt entry, the sequences of proteins in these tests, tags left out.
UniProt P08515, whole entry: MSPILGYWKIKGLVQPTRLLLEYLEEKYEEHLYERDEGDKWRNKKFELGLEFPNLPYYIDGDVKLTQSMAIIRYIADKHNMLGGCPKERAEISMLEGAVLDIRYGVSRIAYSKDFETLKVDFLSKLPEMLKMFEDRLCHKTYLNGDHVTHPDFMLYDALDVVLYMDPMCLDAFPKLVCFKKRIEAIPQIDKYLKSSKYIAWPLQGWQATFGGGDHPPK

“CAAGACAAGACAAGACAAGACAAGACAAGA [(CAAGA)6]”: no binding.
